Reference: patent US4073917A, “Local anesthetics tertiary aminoalkoxyphenyl ethers” (priority 1974, dated 1978)

Test system: back of the guinea-pig (intact skin)
Test: surface anesthesia by epicutaneous application to intact skin, pricking test as in the intracutaneous wheal test
Assay type: in vivo, guinea-pig (Dunkin-Hartley, males)
Description: A. Guinea-pigs (Dunkin-Hartley, males, 4-6 weeks of age 350±50 g) were shaved and depilated. A gauze folded twice (23 mm diameter) was put into the test solution and thereafter in a plastic cup (outer diameter 26 mm, inner diameter 24 mm, inner height 4 mm). The cup with the gauze saturated with test solution was attached to the back of the animal as an occlusive dressing fastened with plaster (25 mm width) wound around the body). […] After the end of the contact time the site of contact was washed and marked with a fatty chalk. With a sharp instrument (e.g. cannula or a pair of tweezers) the place was pricked six times and registering was made as in the intracutaneous wheal test (Bulbring-Wajda: J. Pharmacol., 1945, 85, p 78) on the back of the guinea-pig, i.e. by registering the presence or absence of a characteristic ripple of the skin of the back of the animal. Every pricking which gives no skin contraction was counted. The test was repeated at regular intervals of 5 min, during an interval of 30 min from the end of the application period. The test gives an indication of onset time, depth and duration of block. The percentage block during the 25 min testing period was used as an index for efficiency. The test solution consisted of the test compound (base) dissolved to 10% (w/v, g/ml) in a mixture of isopropanol (65%: v/v), glycerol (25%: v/v) and water (10%: v/v). […]

SMILES: CCN(CC)CC(=O)Nc1c(C)cccc1C [Lidocaine, diethylaminoacet-2,6-xylidide]
- surface anesthetic effect (in words): much weaker than that of the new compounds
